Reference: US6106856A, “Transdermal delivery of calcium channel blockers, such as nifedipine” (The Board of Governors for Higher Education, State of Rhode …, priority 1995, dated 2000)

Test: Recrystallization of applied saturated drug solution during the permeation experiment
Assay type: physicochemical
Conditions: applied crystal-free
Description: […] of this solution was given on heat-separated human epidermis (breast, area 4.5 cm^2) which was mounted on a Franz-diffusion cell. The cell was filled with 23 ml of a mixture of 60 parts of a 0.9% NaCl-solution and 40 parts of polyethylene glycol 400 (v/v). At the sampling times the receptor fluid is completely renewed and analyzed for nimodipine content.

With `COC(=O)C1=C(C)NC(C)=C(C(=O)OC)C1c1ccccc1[N+](=O)[O-]` [Nifedipine] the “recrystallization during the experiment” value was “recrystallization”.
